# Measured values reported in the supplement of paper PMC11060735.
# Several values for one entry are separate records, joined by “and”; a condition that tells them apart may be missing. Equal entries are not always repeated. Structures can show the parent of a compound that is named as a salt. ± gives the standard deviation of the averaged measurements. In all, about 1,800 compounds were measured (“GFP- (p16Ink4a-) cell count relative to negative-control wells”: median about 0.99, lowest 2% from about 0.5 on). The list shows a part of the results.
# Tested on: mouse p16Ink4a+/- lung fibroblasts (INKBRITE, bleomycin-injured)
# Test: GFP- (p16Ink4a-) cell count relative to negative-control wells (fold of vehicle); higher = more p16Ink4a- cells surviving
# Conditions: 1 µM; 3 days
row,SMILES,GFP-
1,CCCCCCCCCCCCc1ccc(S(=O)(=O)Nc2nncs2)cc1,0.919
2,COc1cc(C)c(/C=C/C(C)=C/C=C/C(C)=C/C(=O)O)c(C)c1C [Acitretin],0.862
3,COc1cc(Nc2ncc3c(n2)-c2ccc(Cl)cc2C(c2c(F)cccc2OC)=NC3)ccc1C(=O)O [Alisertib],0.657 ± 0.16
4,O=C(O)CC[C@H]1CC[C@@](c2cc(F)ccc2F)(S(=O)(=O)c2ccc(Cl)cc2)CC1,0.8
5,O=C(O)[C@H](Cc1c[nH]c2ccccc12)N1C(=O)c2ccccc2C1=O,1.1 ± 0.13
6,CN1CCN(C2=Nc3ccccc3Oc3ccc(Cl)cc32)CC1 [Loxapine],0.935
7,COc1ccc(Cn2ccc3ccc(C(=O)NO)cc32)cc1,0.864 ± 0.18
8,CCO/C(O)=C1\C(C)=NC(C)=C(C(=O)OC)C1c1cccc([N+](=O)[O-])c1 (centres undefined) [Nitrendipine],1.18
9,CO[C@H]1C(=O)[C@]2(C)[C@@H](OC)C[C@H]3OC[C@@]3(OC(C)=O)[C@H]2[C@H](OC(=O)c2ccccc2)[C@]2(O)C[C@H](OC(=O)[C@H](O)[C@@H](NC(=O)OC(C)(C)C)c3ccccc3)C(C)=C1C2(C)C [Cabazitaxel],0.558
10,Cc1ccc(S(=O)(=O)c2ccc([N+](=O)[O-])o2)cc1,0.415
11,CN1CCc2nc(C(=O)N[C@@H]3C[C@@H](C(=O)N(C)C)CC[C@@H]3NC(=O)C(=O)Nc3ccc(Cl)cn3)sc2C1 [Edoxaban],1.01
12,CN(C)CCN1C(=O)c2cccc3cc(N)cc(c23)C1=O [Amonafide],0.867
13,Oc1ncnc2[nH]ncc12 [Allopurinol],0.898
14,CC1CCc2cc(F)cc3c(=O)c(C(=O)O)cn1c23 (centres undefined) [Flumequine],0.955
15,COc1c2occc2cc2ccc(=O)oc12 [Methoxsalen],0.975
16,N#CC[C@@H](C1CCCC1)n1cc(-c2ncnc3[nH]ccc23)cn1 [S-Ruxolitinib],0.892 ± 0.077
17,CC(C)N(CCCNC(=O)Nc1ccc(C(C)(C)C)cc1)C[C@H]1O[C@@H](n2cc(Br)c3c(N)ncnc32)[C@H](O)[C@@H]1O,1.01 ± 0.042
18,C[C@@H]1CCO[C@H]2Cn3cc(C(=O)NCc4ccc(F)cc4F)c(=O)c(O)c3C(=O)N12 [Dolutegravir],0.916
19,c1ccc2c(c1)CCCC2C1=NCCN1 (centres undefined) [Tetryzoline],0.987
20,CCCCCCCCCCCC1=C(O)C(O)=CC(=O)C1=O [Embelin],0.943
21,"CN(C/C=C/C#CC(C)(C)C)Cc1cccc2ccccc12 [Terbinafine, Terbinafine Hydrochloride]",1.01 and 1.04
22,O=C1NC(=O)C(c2ccccc2)(c2ccccc2)N1 [Phenytoin],1.14 and 1.07
23,CCN(Cc1ccncc1)C(=O)C(CO)c1ccccc1 (centres undefined) [Tropicamide],0.967
24,O=C(/C=C/c1cccc(S(=O)(=O)Nc2ccccc2)c1)NO [Belinostat],0.623 ± 0.042
25,Cc1cc(Nc2cc(CN3CCOCC3)c3nc(C)c(Cc4ccc(Cl)cc4F)n3n2)[nH]n1,0.793 ± 0.073

# Gathered by group, the entries above containing a tert-butyl group
row,SMILES,GFP-
9,CO[C@H]1C(=O)[C@]2(C)[C@@H](OC)C[C@H]3OC[C@@]3(OC(C)=O)[C@H]2[C@H](OC(=O)c2ccccc2)[C@]2(O)C[C@H](OC(=O)[C@H](O)[C@@H](NC(=O)OC(C)(C)C)c3ccccc3)C(C)=C1C2(C)C [Cabazitaxel],0.558
17,CC(C)N(CCCNC(=O)Nc1ccc(C(C)(C)C)cc1)C[C@H]1O[C@@H](n2cc(Br)c3c(N)ncnc32)[C@H](O)[C@@H]1O,1.01 ± 0.042
21,"CN(C/C=C/C#CC(C)(C)C)Cc1cccc2ccccc12 [Terbinafine, Terbinafine Hydrochloride]",1.01 and 1.04

# Carrying on.

row,SMILES,GFP-
1,COc1c(N2C[C@@H]3CCCN[C@@H]3C2)c(F)cc2c(=O)c(C(=O)O)cn(C3CC3)c12 [Moxifloxacin],0.975
2,C=CC(=O)Nc1cccc(Oc2nc(Nc3ccc(N4CCN(C)CC4)cc3OC)ncc2Cl)c1,1.09
3,Cc1ccc(Sc2cncc3sc(C(N)=O)cc23)cc1,1
4,O=C(COc1ccc(C(=O)c2ccccc2)cc1)NC1CCN(Cc2ccccc2)CC1 [AdipoRon],0.983
5,CC1(C)S[C@@H]2[C@H](NC(=O)[C@H](N)c3ccc(O)cc3)C(=O)N2[C@H]1C(=O)O [Amoxicillin],1.02 and 0.968
6,CNC(=O)c1cc(COc2nnc(Nc3ccc(Cl)cc3)c3ccoc23)ccn1 [Telatinib],0.91
7,CO[C@H]1/C=C/O[C@@]2(C)Oc3c(C)c(O)c4c(O)c(c(/C=N/N5CCN(C)CC5)c(O)c4c3C2=O)NC(=O)/C(C)=C\C=C\[C@H](C)[C@H](O)[C@@H](C)[C@@H](O)[C@@H](C)[C@H](OC(C)=O)[C@@H]1C [Rifampicin],0.929
8,NC(=O)c1ccc(-c2nc(-c3ccc4c(c3)OCO4)c(-c3ccccn3)[nH]2)cc1,1.22
9,COc1ccc(-c2nc3cc(C4=NNC(=O)CC4C)ccc3[nH]2)cc1 (centres undefined) [Pimobendan],1.02
10,CCCCC(=O)O[C@H]1CC[C@H]2[C@@H]3CCc4cc(O)ccc4[C@H]3CC[C@]12C [Estradiol valerate],1.05
11,COc1cc(N2CCN(C)CC2)ccc1Nc1nccc(-c2cn(C)c3cnccc23)n1,0.993
12,Cc1ccc(Nc2c(F)cccc2Cl)c(CC(=O)O)c1 [Lumiracoxib],1.11
13,NC(=O)c1ccc(N(C(N)=O)c2c(F)cccc2F)nc1-c1ccc(F)cc1F,0.986
14,Cc1cnc(NC(=O)C2=C(O)c3ccccc3S(=O)(=O)N2C)s1 [Meloxicam],1.03
15,O=C1C(=O)N(Cc2ccc(Cl)c(Cl)c2)c2ccccc21 [Apoptosis Activator 2],0.931
16,CCC(CC)(NC(=O)C(C)C)C(=O)N[C@@H](CCCN=C(N)N)C(=O)NC1(C(=O)NC(c2ccc(F)cc2)c2ccc(F)cc2)CCCC1,1.06 ± 0.055
17,COC[C@H](NC(=O)c1cnc(C)s1)C(=O)N[C@@H](COC)C(=O)N[C@@H](Cc1ccccc1)C(=O)C1(C)CO1 (some centres undefined) [Oprozomib],0.381
18,COc1ccc(-c2cc(=O)c3c(OC)c(OC)c(OC)c(OC)c3o2)cc1OC [Nobiletin],0.889
19,CCn1c(=O)c2c(nc(/C=C/c3ccc(OC)c(OC)c3)n2C)n(CC)c1=O [Istradefylline],0.882
20,CC(=O)O[C@@]12CO[C@@H]1C[C@H](O)[C@@]1(C)C(=O)[C@H](O)C3=C(C)[C@@H](OC(=O)[C@H](O)[C@@H](NC(=O)OC(C)(C)C)c4ccccc4)C[C@@](O)([C@@H](OC(=O)c4ccccc4)[C@H]21)C3(C)C [Docetaxel],0.447
21,CCc1ccc(/C=C2/SC(=S)NC2=O)cc1,1.01
22,Nc1nc(N)c2nc(-c3cccc(O)c3)c(-c3cccc(O)c3)nc2n1,1.19
23,O=C(O)CC1CC(c2ccccc2)=NO1 (centres undefined),0.823
24,CC(C)c1ccccc1Cc1cc(C(=O)Nc2ccc(S(=O)(=O)c3ccccc3C(C)(C)C)cc2)c(O)c(O)c1O,0.849
